Measurements published in patent US7183278B1 (priority 1998, dated 2007).
Some entries share one result that the patent states for a list of compounds. Some compounds share one range, which may span the group rather than tell each member.

Experiments:
Assay type in all cases: in vivo
[1] = system: rice blast fungi (Pyricularia oryze); conditions: 100 ppm test solution (20% emulsifiable concentrate diluted with water) applied to stems and leaves of fourth-leaf stage rice seedlings; lesions per leaf vs nontreated plot six days after inoculation
[2] = system: cucumber powdery mildew fungi (Sphaerotheca fuliginea); assay: Preventive effect against powdery mildew of cucumber; conditions: 200 ppm test solution applied to stems and leaves of cucumber seedlings of first leaf development stage; area of the disease vs nontreated plot ten days after inoculation
[3] = system: wheat leaf rust fungi (Puccinia recondita); assay: Preventive effect against wheat leaf rust; conditions: 200 ppm test solution applied to stems and leaves of fourth-leaf stage wheat seedlings; area of the disease vs nontreated plot fourteen days after inoculation

Molecule | protective value [1] | protective value [2] | protective value [3]
3-Hydroxy-4-methoxy-3′-methyl-4′-(3″-trifluoromethylphenoxy)picolinanilide [Example 48] | A (Protective value=100% to 80%) | A (Protective value=100% to 80%) | –
3-Hydroxy-4-methoxy-2′-methoxy-4′-(4″-methylphenoxy)picolinanilide [Example 24] | A (Protective value=100% to 80%) | – | –
(1′S)-3-Hydroxy-4-methoxy-N-(1′-cyclohexylethyl)picolinamide [Example 117] | A (Protective value=100% to 80%) | – | –
COc1ccnc(C(=O)NC2CCCCCC2)c1O [Example 57, 3-Hydroxy-4-methoxy-N-cycloheptylpicolinamide] | – | – | A (Protective value=100% to 80%)
3-Hydroxy-4-methoxy-2′,4′-di(4″-methylphenoxy)picolinanilide [Example 37] | A (Protective value=100% to 80%) | – | –
(1′R)-3-Hydroxy-4-methoxy-N-(1′-cyclohexylethyl)picolinamide [Example 118] | A (Protective value=100% to 80%) | – | –
3-Hydroxy-4-methoxy-4′-(4″-t-butylphenoxy)picolinanilide [Example 10] | A (Protective value=100% to 80%) | – | –
COc1ccnc(C(=O)Nc2cccc(OCc3ccccc3)c2)c1O [Example 40, 3-Hydroxy-4-methoxy-3′-benzyloxypicolinanilide] | – | A (Protective value=100% to 80%) | –
3-Hydroxy-4-methoxy-4′-(3″-phenylpropyloxy)picolinanilide [Example 109] | A (Protective value=100% to 80%) | – | –
3-Hydroxy-4-methoxy-4′-(3″-trifluoromethoxyphenoxy)picolinanilide [Example 35] | A (Protective value=100% to 80%) | A (Protective value=100% to 80%) | –
3-Hydroxy-4′-(3″-trifluoromethylphenoxy)picolinanilide [Example 6] | A (Protective value=100% to 80%) | A (Protective value=100% to 80%) | –
3-Hydroxy-4-methoxy-3′-chloro-4′-(4″-methoxyphenoxy)picolinanilide [Example 31] | A (Protective value=100% to 80%) | – | –
(2′-Trans)-3-hydroxy-4-methoxy-N-(2′-phenylcyclopropyl)picolinamide [Example 56] | A (Protective value=100% to 80%) | A (Protective value=100% to 80%) | A (Protective value=100% to 80%)
3-Hydroxy-4-methoxy-4′-(2″,4″-di-t-butyl-phenoxy)picolinanilide [Example 25] | A (Protective value=100% to 80%) | – | –
3-Hydroxy-4-methoxy-4′-(4″-chlorophenetyloxy)picolinanilide [Example 119] | A (Protective value=100% to 80%) | – | –
3-Hydroxy-4′-(4″-t-butylphenoxy)picolinanilide [Example 4] | A (Protective value=100% to 80%) | – | –
COc1ccnc(C(=O)Nc2ccc(Oc3ccccc3)c(C)c2)c1O [Example 23, 3-Hydroxy-4-methoxy-3′-methyl-4′-phenoxypicolinanilide] | – | A (Protective value=100% to 80%) | –
COc1ccnc(C(=O)NCc2ccc(Oc3ccccc3)cc2)c1O [Example 71, 3-Hydroxy-4-methoxy-N-(4′-phenoxybenzyl)picolinamide] | – | A (Protective value=100% to 80%) | –
(2′-Trans)-3-hydroxy-4-methoxy-N-(2′-methylcyclohexyl)picolinamide [Example 76] | A (Protective value=100% to 80%) | – | –
3-Hydroxy-4-methoxy-N-1′,1′,3′,3′-tetramethylbutylpicolinamide [Example 108] | A (Protective value=100% to 80%) | – | –
3-Hydroxy-4-methoxy-3′-trifluoromethyl-4′-(4″-trifluoromethylphenoxy)picolinanilide [Example 16] | A (Protective value=100% to 80%) | – | –
3-Hydroxy-4-methoxy-(3′-chloro-4′-phenetyloxy)picolinanilide [Example 110] | A (Protective value=100% to 80%) | – | –
3-Hydroxy-4-methoxy-N-(1-adamantanemethyl)picolinamide [Example 47] | A (Protective value=100% to 80%) | – | –
COc1ccnc(C(=O)NCCC2=CCCCC2)c1O [Example 53, 3-Hydroxy-4-methoxy-N-(2′-(1-cyclohexenyl)ethyl)picolinamide] | – | – | A (Protective value=100% to 80%)
(2′-Cis)-3-hydroxy-4-methoxy-N-(2′-methylcyclohexyl)picolinamide [Example 77] | A (Protective value=100% to 80%) | – | –
3-Hydroxy-4-methoxy-4′-(4″-N-isopropylamino-phenoxy)picolinanilide [Example 58] | A (Protective value=100% to 80%) | – | –

Molecule | protective value [1] | protective value [2] | protective value [3]
(1′S)-3-Hydroxy-4-methoxy-N-(1′-phenylethyl)picolinamide [Example 107] | A (Protective value=100% to 80%) | – | –
3-Hydroxy-4-methoxy-3′-methyl-4′-(4″-methylphenoxy)picolinanilide [Example 33] | A (Protective value=100% to 80%) | A (Protective value=100% to 80%) | –
3-Hydroxy-4-methoxy-3′-chloro-4′-(4″-methylphenoxy)picolinanilide [Example 32] | A (Protective value=100% to 80%) | – | –
COc1ccnc(C(=O)NC2CCCCCCC2)c1O [Example 43, 3-Hydroxy-4-methoxy-N-cyclooctylpicolinamide] | – | – | A (Protective value=100% to 80%)
COc1ccnc(C(=O)Nc2ccc(C(C)(C)C)cc2)c1O [Example 114, 3-Hydroxy-4-methoxy-4′-t-butylpicolinanilide] | – | A (Protective value=100% to 80%) | –
3-Hydroxy-4-methoxy-4′-(4″-methylphenoxy)-3′-trifluoromethylpicolinanilide [Example 19] | A (Protective value=100% to 80%) | – | –
3-Hydroxy-4-methoxy-N-phenetylpicolinamide [Example 68] | A (Protective value=100% to 80%) | – | –
3-Hydroxy-4-methoxy-4′-phenetyloxypicolinanilide [Example 72] | A (Protective value=100% to 80%) | – | –
COc1ccnc(C(=O)NC2CCCCC2)c1O [Example 59, 3-Hydroxy-4-methoxy-N-cyclohexylpicolinamide] | – | – | A (Protective value=100% to 80%)
3-Hydroxy-4-methoxy-4′-(4″-nitrophenoxy)picolinanilide [Example 54] | A (Protective value=100% to 80%) | – | –
3-Hydroxy-4-methoxy-4′-(4″-isobutyrylpiperazin-1″-yl)picolinanilide [Example 73] | A (Protective value=100% to 80%) | – | –
COc1ccnc(C(=O)NCC(Cl)CCCCl)c1O (centres unmarked) [Example 111, 3-Hydroxy-4-methoxy-N-(2′,5′-dichloropentyl)picolinamide] | – | A (Protective value=100% to 80%) | –
COc1ccnc(C(=O)NCCC2CCCCC2)c1O [Example 63, 3-Hydroxy-4-methoxy-N-(2′-cyclohexylethyl)picolinamide] | – | – | A (Protective value=100% to 80%)
3-Hydroxy-4-methoxy-4′-(3″,5″-di-t-butyl-phenoxy)picolinanilide [Example 27] | A (Protective value=100% to 80%) | – | –
3-Hydroxy-4-methoxy-4′-(4″-methylphenoxy)picolinanilide [Example 18] | A (Protective value=100% to 80%) | – | –
3-Hydroxy-4-methoxy-4′-(3″-trifluoromethylphenoxy)picolinanilide [Example 26] | A (Protective value=100% to 80%) | – | –
3-Hydroxy-4-methoxy-4′-(4″-methoxyphenoxy)-3′-methylpicolinanilide [Example 29] | A (Protective value=100% to 80%) | A (Protective value=100% to 80%) | A (Protective value=100% to 80%)
3-Hydroxy-4-methoxy-4′-(4″-phenylphenoxy)picolinanilide [Example 17] | A (Protective value=100% to 80%) | – | –
(1′R)-3-Hydroxy-4-methoxy-N-(1′-phenylethyl)picolinamide [Example 106] | A (Protective value=100% to 80%) | – | –
3-Hydroxy-4-methoxy-3′-chloro-4′-(4″-chlorophenoxy)picolinanilide [Example 28] | A (Protective value=100% to 80%) | A (Protective value=100% to 80%) | –
3-Hydroxy-4-methoxy-4′-(4″-methoxyphenoxy)picolinanilide [Example 15] | A (Protective value=100% to 80%) | – | –
3-Hydroxy-4-methoxy-4′-(2″-phenoxyethyloxy)picolinanilide [Example 105] | A (Protective value=100% to 80%) | – | –
3-Hydroxy-4-methoxy-4′-(4″-methylphenoxy)-2′-trifluoromethylpicolinanilide [Example 36] | A (Protective value=100% to 80%) | A (Protective value=100% to 80%) | –
3-Hydroxy-4-methoxy-4′-(4″-trifluoromethoxyphenoxy)picolinanilide [Example 34] | A (Protective value=100% to 80%) | A (Protective value=100% to 80%) | –
3-Hydroxy-4-methoxy-4′-(3″-phenoxypropyloxy)picolinanilide [Example 124] | A (Protective value=100% to 80%) | – | –
